This test in a line: qHTS Assay for Lipid Storage Modulators in Drosophila S3 Cells.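 As to cell number change: cells counted by Cell Tracker Red CMTPX staining in the red channel.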 The conditions noted are these: BODIPY lipid droplet fluorescence, 18-24 h; for cell number change: measured here: cell count max response, cells fed with added oleic acid. Summed up:
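Drosophila S3 cells loaded with oleic acid (400 uM, as added) and compounds at several concentrations; lipid droplets imaged by 488-nm laser-scanning cytometry, 500–530 nm intensity and object ratio to cell channel. Percent activity normalized to 20 uM Triacsin C.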

The mark [1] stands for this setting: measured here: cell number channel AC50, cells fed with added oleic acid.
Where [2] appears, read: measured here: lipid fluorescence (Fed channel) AC50, cells fed with added oleic acid.

Structures are written as SMILES. The list shows a part of the results. Shown are side measurements of this screen, not its main read-out; they come without a call. Compounds called inactive in the main read-out are mostly missing here. Words in brackets tell the shape of the fitted curve; partial curves, single points and poor fits give uncertain potencies.

From PubChem BioAssay AID2685 (National Center for Advancing Translational Sciences (NCATS), 2010) come the findings set out here.

One may read the AC50 as the concentration giving half of the maximal activity seen. A higher AC50 goes with weaker potency. `O=C(CN(Cc1cccs1)S(=O)(=O)c1ccc(S(=O)(=O)NC2CCCCC2)cc1)Nc1ccccc1`: the cell number change was 57.8%. Also, under setting [1], the AC50 is 29.1 µM [rising, single point].

As to `COc1ccc(C(=O)O)cc1S(=O)(=O)NC(C)(C)C`, the cell number change is -23.7%. Moreover, the AC50 under setting [2] was 0.82 µM [falling, full curve, poor fit].

Regarding `O=C(CSC1=Nc2ccccc2C2=NC(Cc3c[nH]c4ccccc34)C(=O)N12)NC1CCCCC1` (stereo not given), the cell number change turned out to be 17.8%. For the same compound, the AC50 under setting [1] is 0.103 µM [rising, full curve, poor fit].

Take `C/C(=N/NS(=O)(=O)c1ccc(C)cc1)c1ccc2c(c1)OCO2`: the cell number change is 64.4%. Also, the AC50 under setting [1] is 5.17 µM [rising, partial curve]. The AC50 under setting [2] is 29.1 µM [rising, single point].

As to `O=C(NCc1ccc2c(c1)OCO2)c1cccc(F)c1`, the cell number change was -20.9%.

Consider `COc1ccc(CC(=O)N(C)CC(=O)Nc2ccccc2Cl)cc1S(=O)(=O)N1CCOCC1`, for which the cell number change was 21.2%. Further, under setting [2], the AC50 is 2.06 µM [rising, single point].

As to `CC(=O)c1ccc(S(=O)(=O)N2CCN(C(=O)c3ccc(COc4ccccc4)o3)CC2)cc1`, the cell number change was -24.3%.

In the case of `CCOc1cnc(-c2c(-c3ccccc3Cl)noc2C)o1`, the cell number change was -64.7%. Besides, the AC50 under setting [1] is 20.6 µM [falling, single point].

Regarding `COc1ccc(OC)c(NC(=O)CSc2ccccc2)c1`, the cell number change is 6.02%. Besides, under setting [2], the AC50 is 3.66 µM [rising, full curve].

With `CCC(=O)c1ccc2c(c1)OCCO2`, the cell number change was found to be 26.2%. The AC50 under setting [1] is 0.517 µM [rising, partial curve, poor fit]. For the same compound, the AC50 under setting [2] was 6.51 µM [rising, partial curve, poor fit].

Regarding `CCCn1c(N)c(C(=O)CSc2n[nH]c(-c3ccccc3F)n2)c(=O)n(C)c1=O`, the cell number change was -42.6%. Besides, the AC50 under setting [1] was 6.51 µM [falling, full curve]. For the same compound, the AC50 under setting [2] was 29.1 µM [falling, single point].

As for `O=C(NC1CCc2ccccc21)c1cc(COc2c(F)cccc2F)on1` (stereo not given), the cell number change is 29.7%. Under setting [1], the AC50 is 1.84 µM [rising, full curve, poor fit]. The AC50 under setting [2] is 2.59 µM [rising, full curve].

On to `CC(=O)Nc1ccc(NC(=O)CN(c2cccc(C)c2)S(C)(=O)=O)cc1`, for which the cell number change was -60.8%. For the same compound, the AC50 under setting [1] was 20.6 µM [falling, single point]. Besides, the concentration at half-maximal activity (AC50) under setting [2] was 32.6 µM [rising, single point].

For `Cc1ccc(C)c2[nH]c(=O)c(CN(Cc3ccco3)C(=O)Nc3ccccc3)cc12`, the cell number change stood at 46.7%. The AC50 under setting [1] is 0.58 µM [rising, full curve]. Under setting [2], the AC50 is 0.116 µM [rising, single point].

On to `CCOc1ccc(C(=O)C(C)OC(=O)Cn2[nH]c(=O)c3ccccc3c2=O)cc1` (stereo not given), for which the cell number change was -0.578%. Also, the AC50 under setting [2] was 29.1 µM [rising, single point].

Consider `COc1ccc(NC(=O)C2CCCCN2S(=O)(=O)c2ccc(F)cc2)c(OC)c1` (stereo not given), for which the AC50 reads like this: under setting [1], 0.58 µM [rising, single point]; under setting [2], 13 µM [falling, partial curve].

Regarding `Cc1ccc(S(=O)(=O)N2CCOC23CCN(C(=O)c2ccc(Cl)cc2Cl)CC3)cc1`, the cell number change was -0.763%.

Turning to `COc1ccc(NS(=O)(=O)c2cc(NC(=O)c3nn(C)c(=O)c4ccccc34)ccc2OC)cc1`, the cell number change is -26.1%. The AC50 under setting [1] is 0.651 µM [rising, full curve]. Moreover, the AC50 under setting [2] is 5.8 µM [rising, single point].

Take `COc1ccccc1/C=C\C=N\NC(=O)c1ccco1`: under setting [1], the AC50 is 5.17 µM [rising, single point].

Consider `Cc1[nH]c2ccccc2c1/C=C/C(=O)c1ccncc1`, for which the cell number change is 8.32%. Further, the concentration at half-maximal activity (AC50) under setting [2] is 6.51 µM [falling, partial curve].

For the compound `O=C(COC(=O)COc1cccc(C(F)(F)F)c1)NC1CCS(=O)(=O)C1` (stereo not given), the cell number change was -29.5%. Also, the AC50 under setting [2] is 6.51 µM [falling, full curve].

Regarding `Cc1cc(C)c2nc(-c3ccccn3)cc(C(=O)NCCc3ccc(S(N)(=O)=O)cc3)c2c1`, the cell number change was -27.2%. Also, under setting [2], the AC50 is 32.6 µM [falling, single point].

For the compound `COc1ccc(C(=O)NCC(=O)Nc2ccc(F)cc2)cc1OC`, the cell number change was found to be 3.53%. In addition, the AC50 under setting [2] is 0.291 µM [rising, partial curve, poor fit].

As for `COc1cc(/C=N/NS(=O)(=O)c2ccc(C)c([N+](=O)[O-])c2)cc([N+](=O)[O-])c1O`, the cell number change is -4.69%. Also, under setting [2], the AC50 was 29.1 µM [rising, single point].

Regarding `CCOc1ccc(C(=O)Nc2cccc(NC(=O)c3cccs3)c2)cc1[N+](=O)[O-]`, the cell number change came to 8.87%. The AC50 under setting [1] was 0.731 µM [falling, single point]. Also, the AC50 under setting [2] is 1.03 µM [falling, single point].

On to `COc1ccc(OC)c(S(=O)(=O)N2CCC(C(=O)NCC3CCCO3)CC2)c1` (stereo not given), for which the cell number change was -113%. Besides, the AC50 under setting [1] is 23.1 µM [falling, partial curve]. In addition, the concentration at half-maximal activity (AC50) under setting [2] is 29.1 µM [falling, partial curve].

On to `CN(c1ccccc1)S(=O)(=O)c1ccc(Cl)c(C(=O)OCC(=O)NCc2ccco2)c1`, for which the cell number change is -20.1%.

On to `C=CCn1c(CCNC(=O)c2cccs2)nnc1SCC(=O)c1ccc(Br)cc1`, for which the cell number change stood at 71.7%. Moreover, under setting [1], the AC50 was 14.6 µM [rising, partial curve]. Besides, the AC50 under setting [2] is 6.51 µM [rising, single point].

For the compound `O=C(N/N=C/c1cccc(O)c1)C(=O)N1CCCCCC1`, the cell number change came to 38.9%. The AC50 under setting [1] is 29.1 µM [rising, single point].

For `COc1ccc(S(=O)(=O)N2CCCCC2)cc1NC(=O)CSc1nnc(C2CC2)n1C`, the cell number change is -5.51%. Moreover, the AC50 under setting [2] was 0.164 µM [rising, full curve, poor fit].

For the compound `O=S(=O)(N/N=C\c1c(F)cccc1Cl)c1ccc(Cl)cc1`, the cell number change was -11%. Under setting [2], the AC50 was 23.1 µM [falling, partial curve].

`COc1cc(NC(=O)c2ccc(Cl)cc2)c2ncccc2c1`: the cell number change is -26.8%. Also, the AC50 under setting [2] is 23.1 µM [falling, partial curve].

With `Cc1sc2ncnc(NCC(c3ccccc3)N(C)C)c2c1C` (stereo not given), the cell number change was -28.6%.

As to `CCOC(=O)C(C)(C)Sc1nc2c(cnn2-c2ccc(C)cc2)c(=O)[nH]1`, the cell number change was -34.9%. Besides, under setting [1], the AC50 is 29.1 µM [falling, single point]. Besides, under setting [2], the AC50 was 29.1 µM [falling, single point].

Consider `CC(C)c1nnc(NC(=O)CCC(=O)N2CCN(Cc3ccc(F)cc3)CC2)s1`, for which the cell number change was -7.67%.

With `CC1CCN(Cc2c(C(=O)N/N=C/c3cccc(Cl)c3)nnn2-c2nonc2N)CC1`, the cell number change is 33%. Further, the AC50 under setting [1] was 16.4 µM [rising, single point].

Consider `COc1ccc2c(c1OC)C(=O)OC2Nc1nc(-c2cc3cc(Br)ccc3oc2=O)cs1` (stereo not given), for which the cell number change came to 7.76%. In addition, the AC50 under setting [2] was 0.291 µM [rising, full curve].

For the compound `COC(=O)C1=C(C)NC(C)=C(C(=O)OC)C1C(=O)OCC(=O)Nc1ccc(C(C)=O)cc1`, the AC50 under setting [2] was 35.5 µM [rising, single point].

Take `CC(C)C(=O)Nc1nnc(S(=O)(=O)N2CCCCCC2)s1`: the cell number change amounted to 13.8%. Also, the AC50 under setting [2] was 29.1 µM [rising, single point].

For the compound `COc1ccccc1N1CCN(C(=O)c2cc(-c3ccc(Br)cc3)on2)CC1`, the cell number change was -0.575%.

Consider `Cc1nonc1C1CCCN1C(=O)c1cc(COc2ccc(F)cc2F)on1` (stereo not given), for which the cell number change was 19.8%. Besides, the AC50 under setting [2] was 2.59 µM [rising, full curve, poor fit].

With `COc1ccc(Cl)cc1NC(=O)CN(C)C(=O)CCC(=O)c1cc(C)sc1C`, the AC50 under setting [1] is 2.31 µM [rising, partial curve].

In the case of `NS(=O)(=O)c1cc(C2(O)NC(=O)c3ccccc32)ccc1Cl` (stereo not given), the cell number change is -14.7%. In addition, under setting [2], the AC50 was 2.31 µM [falling, partial curve, poor fit].

Regarding `COc1ccc(NC(=O)CSc2nnc(-c3cc(C)[nH]n3)n2N)cc1`, the cell number change was found to be 21%. The AC50 under setting [2] was 29.1 µM [rising, single point].

As to `Nc1cc(N)nc(SCCN2CCCCC2)n1`, under setting [2], the AC50 was 0.0058 µM [falling, full curve, poor fit].

Turning to `Cc1ccccc1OCCOC(=O)c1cc(S(=O)(=O)N2CCCCC2)ccc1N1CCOCC1`, the cell number change is -34%. Besides, the AC50 under setting [1] was 32.6 µM [falling, single point]. The AC50 under setting [2] was 29.1 µM [falling, single point].

With `CCOC(=O)CC(=O)CSc1nc2c(cc1C#N)CCCCC2`, the cell number change was -0.814%. In addition, the AC50 under setting [2] was 0.92 µM [rising, full curve, poor fit].

In the case of `CN(Cc1cccc(F)c1)C(=O)c1ccc(S(=O)(=O)C(F)F)cc1`, the cell number change is -12.8%.

As for `O=C(Cn1cnc2c(cnn2-c2ccccc2Cl)c1=O)N1CCc2ccccc21`, the cell number change is -20.5%. Besides, under setting [2], the AC50 was 29.1 µM [falling, single point].

For the compound `O=C(CCSc1ccccc1)NCCN1CCOCC1`, the cell number change was 4.86%. Moreover, the AC50 under setting [2] was 9.2 µM [rising, single point].

`Cc1cc(C(=O)N/N=C/c2ccco2)n[nH]1`: the cell number change is 7.22%. Under setting [2], the AC50 was 0.326 µM [rising, single point].

For `O=C(CC1(C(F)(F)F)OCCO1)Nc1ccc2c(c1)OCO2`, the cell number change turned out to be 3.73%.

Take `Cc1cc(C(=O)OCC(=O)NC2CC2)ccc1[N+](=O)[O-]`: the cell number change is -20.3%. Moreover, the AC50 under setting [2] is 3.66 µM [rising, full curve, poor fit].

As for `O=C(CN1C(=O)c2ccccc2S1(=O)=O)Nc1ncccn1`, the cell number change came to 5.85%. Also, under setting [2], the AC50 is 20.6 µM [falling, partial curve, poor fit].

Regarding `O=C(COC(=O)C1C2CC3OC(=O)C1C3C2)Nc1ccccc1` (stereo not given), the cell number change stood at 262%.

Consider `CC(C)(C)n1nc2c(c1NC(=O)Cc1cccc3ccccc13)CS(=O)(=O)C2`, for which the cell number change was -41%. Moreover, the concentration at half-maximal activity (AC50) under setting [1] was 14.6 µM [falling, partial curve, poor fit]. Besides, the AC50 under setting [2] is 4.11 µM [falling, full curve].

Take `CC(C)Sc1nc(-c2cccs2)nc2c1c(=O)n(C)c(=O)n2C`: the cell number change is 21.2%.

Turning to `Cc1ccc(OCC(=O)N(C)CC(=O)Nc2ccccc2Cl)c([N+](=O)[O-])n1`, the cell number change was -2%.

Regarding `CCN(C(=O)COC(=O)C1CCN(S(=O)(=O)c2ccc3c(c2)OCCO3)CC1)C1CCCCC1`, the cell number change worked out at 24.4%. Also, under setting [2], the AC50 is 29.1 µM [rising, single point].
